Measurements reported in PubChem BioAssay AID743121 (NCATS, 2013)
The whole screen tested about 26,000 reagents; shown is an unselected part. 167 of them (0.63%) count as active. 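Calls are per gene from RSA p-values that are not deposited; an individual active-marked siRNA can sensitise only weakly.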 A number with no mark means an inactive call. The numbers tell different reagents against one gene apart.

Test: 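Genes whose silencing strengthens cell killing by camptothecin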 (primary screen)
Cells: MDA-MB-231 cells, a human breast cancer line
Knock-down reagent: single siRNA against human genes, 20 nM siRNA (0.8 pmol per well)
Duration: 120 h (drug added 48 h after transfection, read 72 h later)
Conditions: camptothecin 20 nM (about EC30) for 72 h; vehicle 0.1% DMSO in parallel plates
Measured: 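Cell viability by ATP luminescence (CellTiter-Glo) as % of non-targeting siRNA wells, and the log2 ratio of viability without drug over viability with camptothecin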
Direction: log2 vehicle/camptothecin viability: higher = stronger sensitisation to camptothecin; viability with camptothecin and viability without drug: higher = more viable cells
Hit rule: 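Each gene scored by redundant siRNA activity (RSA) over its individual siRNA ratios; a gene is called active at p < 0.001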

gene symbol | reagent no. | log2 vehicle/camptothecin viability | viability with camptothecin (% of control) | viability without drug (% of control)
MS4A12 | 1 | -0.338 | 137 | 109
MS4A12 | 2 | -0.317 | 77.8 | 62.5
MS4A12 | 3 | 0.4 | 76.3 | 101
MS4A12 | 4 | -0.517 | 103 | 72.1
TNFRSF10D | 1 | -0.0212 | 78.5 | 77.3
TNFRSF10D | 2 | 0.392 | 60.1 | 78.8
TNFRSF10D | 3 | -0.0418 | 92.9 | 90.2
TNFRSF10D | 4 | -0.109 | 114 | 106
MCM3 | 1 | 0.695 | 41 | 66.4
MCM3 | 2 | -0.4 | 70.4 | 53.4
MCM3 | 3 | -0.0216 | 85.7 | 84.4
E2F2 | 1 | 0.376 | 53 | 68.7
E2F2 | 2 | -0.646 | 51.9 | 33.2
E2F2 | 3 | -0.0916 | 112 | 105
PHB2 | 1 | -0.357 | 62.7 | 48.9
PHB2 | 2 | 0.055 | 54.8 | 56.9
PHB2 | 3 | 0.468 | 6.62 | 9.16
TOMM20L | 1 | 0.0906 | 94.2 | 100
TOMM20L | 2 | -0.253 | 129 | 108
TOMM20L | 3 | -0.0169 | 102 | 101
TOMM20L | 4 | -0.336 | 87.7 | 69.5
ZNF398 | 1 | -0.156 | 107 | 96.2
ZNF398 | 2 | 0.258 | 62.5 | 74.7
ZNF398 | 3 | -0.373 | 91.3 | 70.5

Reformatted: entries from further up.
| gene symbol | reagent no. | log2 vehicle/camptothecin viability | viability with camptothecin (% of control) | viability without drug (% of control) |
| --- | --- | --- | --- | --- |
| PHB2 | 1 | -0.357 | 62.7 | 48.9 |
| PHB2 | 2 | 0.055 | 54.8 | 56.9 |
| PHB2 | 3 | 0.468 | 6.62 | 9.16 |

More reagents follow:
gene symbol | reagent no. | log2 vehicle/camptothecin viability | viability with camptothecin (% of control) | viability without drug (% of control)
MAP3K2 | 1 | -0.249 | 100 | 84.1
MAP3K2 | 2 | -0.45 | 100 | 73.4
MAP3K2 | 3 | -0.217 | 101 | 87.3
MAP3K2 | 4 | -0.0951 | 82.4 | 77.2
CLCF1 | 1 | -0.236 | 94.1 | 79.9
CLCF1 | 2 | 0.0227 | 93.7 | 95.2
CLCF1 | 3 | -0.892 | 19.9 | 10.7
CLCF1 | 4 | -0.12 | 72.3 | 66.6
INSL4 | 1 | -0.132 | 64.9 | 59.2
INSL4 | 2 | 0.0433 | 88 | 90.7
INSL4 | 3 | 0.0733 | 71 | 74.6
AQP8 | 1 | 0.334 | 15.1 | 19
AQP8 | 2 | -0.102 | 80.2 | 74.8
AQP8 | 3 | -0.269 | 88.7 | 73.6
HERC3 | 1 | -0.31 | 103 | 82.7
HERC3 | 2 | -0.562 | 47.5 | 32.2
HERC3 | 3 | -0.166 | 80.1 | 71.4
HERC3 | 4 | -0.0416 | 78.2 | 76
RAB7A | 1 | 0.391 | 53 | 69.5
RAB7A | 2 | -0.146 | 86.1 | 77.8
RAB7A | 3 | 0.786 | 18.4 | 31.8
RAB7A | 4 | -0.208 | 72.2 | 62.5
